Source: PMC7060358
These are yes or no findings as the source states them, for the method shown. In cells and extracts the contact can be indirect. For some assays here: Binding can be weak; no strength is given.

Sequences of proteins named here, by UniProt entry; tags and fusion partners are left off. A change or cut given only in a name is not applied to a line headed by its entry.
UniProt P11881: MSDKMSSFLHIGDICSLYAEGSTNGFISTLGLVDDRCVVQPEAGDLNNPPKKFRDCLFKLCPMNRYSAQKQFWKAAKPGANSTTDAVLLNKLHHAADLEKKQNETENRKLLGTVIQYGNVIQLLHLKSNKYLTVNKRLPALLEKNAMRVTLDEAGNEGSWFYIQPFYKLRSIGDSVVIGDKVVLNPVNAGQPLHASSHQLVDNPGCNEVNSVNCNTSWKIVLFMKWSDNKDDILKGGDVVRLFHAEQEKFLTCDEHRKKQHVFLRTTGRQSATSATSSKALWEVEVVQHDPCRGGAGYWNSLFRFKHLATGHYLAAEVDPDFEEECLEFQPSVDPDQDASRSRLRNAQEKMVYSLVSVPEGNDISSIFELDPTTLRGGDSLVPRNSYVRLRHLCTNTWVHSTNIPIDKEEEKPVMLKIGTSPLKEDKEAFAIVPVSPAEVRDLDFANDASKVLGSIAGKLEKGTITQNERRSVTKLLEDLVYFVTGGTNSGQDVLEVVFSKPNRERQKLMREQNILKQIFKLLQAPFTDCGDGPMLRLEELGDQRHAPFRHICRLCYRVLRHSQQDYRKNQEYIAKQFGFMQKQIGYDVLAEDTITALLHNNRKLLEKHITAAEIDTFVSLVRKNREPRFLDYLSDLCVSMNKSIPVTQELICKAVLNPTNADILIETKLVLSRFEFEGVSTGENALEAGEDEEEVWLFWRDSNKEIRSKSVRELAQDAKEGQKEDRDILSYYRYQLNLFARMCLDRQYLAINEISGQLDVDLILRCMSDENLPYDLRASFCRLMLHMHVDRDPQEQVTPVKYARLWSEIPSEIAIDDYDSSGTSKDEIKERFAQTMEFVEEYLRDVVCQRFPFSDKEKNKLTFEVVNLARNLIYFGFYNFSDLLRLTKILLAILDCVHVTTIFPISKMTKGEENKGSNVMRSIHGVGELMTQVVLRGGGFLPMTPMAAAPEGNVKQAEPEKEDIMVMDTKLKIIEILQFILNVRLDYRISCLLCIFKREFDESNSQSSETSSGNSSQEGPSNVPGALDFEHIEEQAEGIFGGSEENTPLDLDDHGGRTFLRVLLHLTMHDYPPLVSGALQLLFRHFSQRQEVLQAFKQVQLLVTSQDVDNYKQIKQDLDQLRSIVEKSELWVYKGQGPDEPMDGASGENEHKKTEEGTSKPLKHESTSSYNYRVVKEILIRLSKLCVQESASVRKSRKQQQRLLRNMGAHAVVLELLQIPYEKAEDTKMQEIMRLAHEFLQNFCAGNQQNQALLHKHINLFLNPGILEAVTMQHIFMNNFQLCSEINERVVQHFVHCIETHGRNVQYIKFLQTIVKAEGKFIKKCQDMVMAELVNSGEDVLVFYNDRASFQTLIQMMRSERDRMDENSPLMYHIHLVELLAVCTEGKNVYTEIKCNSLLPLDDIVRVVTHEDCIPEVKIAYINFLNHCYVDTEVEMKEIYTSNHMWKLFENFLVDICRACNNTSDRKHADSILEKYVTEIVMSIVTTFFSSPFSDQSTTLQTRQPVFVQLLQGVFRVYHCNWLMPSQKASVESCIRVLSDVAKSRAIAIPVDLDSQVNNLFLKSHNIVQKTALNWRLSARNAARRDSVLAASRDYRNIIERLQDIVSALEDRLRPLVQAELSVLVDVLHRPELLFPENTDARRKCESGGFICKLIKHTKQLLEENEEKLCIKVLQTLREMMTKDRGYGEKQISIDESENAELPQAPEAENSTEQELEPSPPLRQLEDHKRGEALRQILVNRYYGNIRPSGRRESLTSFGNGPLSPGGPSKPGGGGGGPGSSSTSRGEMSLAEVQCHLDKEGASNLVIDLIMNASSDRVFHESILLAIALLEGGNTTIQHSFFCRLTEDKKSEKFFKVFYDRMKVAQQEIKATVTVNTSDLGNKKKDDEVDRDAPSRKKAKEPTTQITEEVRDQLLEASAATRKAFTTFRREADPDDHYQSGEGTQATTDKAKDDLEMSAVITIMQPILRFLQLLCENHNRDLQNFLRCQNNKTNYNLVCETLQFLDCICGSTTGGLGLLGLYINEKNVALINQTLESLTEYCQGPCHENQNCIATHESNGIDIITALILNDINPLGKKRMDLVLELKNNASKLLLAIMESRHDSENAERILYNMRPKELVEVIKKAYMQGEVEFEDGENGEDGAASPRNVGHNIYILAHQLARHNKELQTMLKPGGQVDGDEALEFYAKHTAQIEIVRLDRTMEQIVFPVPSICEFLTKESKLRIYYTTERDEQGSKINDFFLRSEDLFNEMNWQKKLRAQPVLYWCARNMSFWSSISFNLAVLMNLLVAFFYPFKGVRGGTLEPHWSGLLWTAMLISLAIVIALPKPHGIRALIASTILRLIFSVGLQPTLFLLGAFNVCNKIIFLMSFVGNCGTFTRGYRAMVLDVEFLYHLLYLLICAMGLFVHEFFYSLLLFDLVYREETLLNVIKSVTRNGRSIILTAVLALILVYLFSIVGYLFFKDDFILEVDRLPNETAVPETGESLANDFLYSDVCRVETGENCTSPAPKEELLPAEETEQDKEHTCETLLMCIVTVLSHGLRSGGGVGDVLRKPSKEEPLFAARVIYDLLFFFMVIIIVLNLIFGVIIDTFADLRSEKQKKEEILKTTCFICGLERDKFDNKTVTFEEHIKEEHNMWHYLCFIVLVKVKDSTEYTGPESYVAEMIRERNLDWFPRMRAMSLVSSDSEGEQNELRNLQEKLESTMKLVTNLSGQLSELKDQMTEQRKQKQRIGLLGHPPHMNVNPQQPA
UniProt Q60932: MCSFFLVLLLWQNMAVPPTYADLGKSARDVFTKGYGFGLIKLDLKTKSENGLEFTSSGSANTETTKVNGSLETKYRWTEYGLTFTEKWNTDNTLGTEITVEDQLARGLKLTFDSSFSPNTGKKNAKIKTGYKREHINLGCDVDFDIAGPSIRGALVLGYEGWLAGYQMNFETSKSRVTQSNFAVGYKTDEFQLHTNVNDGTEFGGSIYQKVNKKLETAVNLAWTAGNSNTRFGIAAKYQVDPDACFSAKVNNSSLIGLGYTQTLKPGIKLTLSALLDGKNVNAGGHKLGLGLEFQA

Columns and labels:
[1] = target: IP3 receptor‐1 (mouse (endogenous in lung tissue)) (UniProt P11881); assay: condition: only A. fumigatus-challenged mice treated with IC87114 or 4-PBA; proximity ligation; lung sections of A. fumigatus-challenged mice treated with 1 mg/kg IC87114 or 80 mg/kg 4-PBA; positive PLA dots per field counted
[2] = target: IP3 receptor‐1 (mouse (endogenous in lung tissue)) (UniProt P11881); assay: proximity ligation; lung sections of A. fumigatus-challenged mice; bright field and fluorescence images, positive PLA dots per field counted

- binding [1]: no binding
- binding [2]: binds
Substance: voltage‐dependent anion‐selective channel 1 (from UniProt Q60932)
